Results are given in words; binding and its absence hold for the method and conditions named. Binding seen in cells or lysates may run through a third protein. Some binding calls cover weakened binding; strength is not graded here.
Assays:
[1] = molecular target: histone H2A member X (H2AX), endogenous in MHCC-97 L cells (human (endogenous in MHCC-97 L)) (UniProt P16104); test: co-IP; endogenous proteins, mitochondrial fraction; immunoprecipitation with ASPH antibody or H2AX antibody
[2] = molecular target: histone H2A member X (H2AX), endogenous in MHCC-97 L cells (human (endogenous in MHCC-97 L)) (UniProt P16104); test: co-IP; endogenous proteins, total cell lysates of MHCC-97 L cells; immunoprecipitation with ASPH antibody or H2AX antibody
[3] = molecular target: histone H2A member X (H2AX), endogenous in HepG2 cells (human (endogenous in HepG2)) (UniProt P16104); test: co-IP; HepG2 cells overexpressing ASPH or control vector; immunoprecipitation with H2AX antibody, immunoblot with ASPH, POLG and mTFA antibodies

B1: aspartate β-hydroxylase (ASPH), endogenous in MHCC-97 L cells (enzyme, UniProt Q12797 1-758)
chain: MAQRKNAKSSGNSSSSGSGSGSTSAGSSSPGARRETKHGGHKNGRKGGLSGTSFFTWFMVIALLGVWTSVAVVWFDLVDYEEVLGKLGIYDADGDGDFDVDDAKVLLGLKERSTSEPAVPPEEAEPHTEPEEQVPVEAEPQNIEDEAKEQIQSLLHEMVHAEHVEGEDLQQEDGPTGEPQQEDDEFLMATDVDDRFETLEPEVSHEETEHSYHVEETVSQDCNQDMEEMMSEQENPDSSEPVVEDERLHHDTDDVTYQVYEEQAVYEPLENEGIEITEVTAPPEDNPVEDSQVIVEEVSIFPVEEQQEVPPETNRKTDDPEQKAKVKKKKPKLLNKFDKTIKAELDAAEKLRKRGKIEEAVNAFKELVRKYPQSPRARYGKAQCEDDLAEKRRSNEVLRGAIETYQEVASLPDVPADLLKLSLKRRSDRQQFLGHMRGSLLTLQRLVQLFPNDTSLKNDLGVGYLLIGDNDNAKKVYEEVLSVTPNDGFAKVHYGFILKAQNKIAESIPYLKEGIESGDPGTDDGRFYFHLGDAMQRVGNKEAYKWYELGHKRGHFASVWQRSLYNVNGLKAQPWWTPKETGYTELVKSLERNWKLIRDEGLAVMDKAKGLFLPEDENLREKGDWSQFTLWQQGRRNENACKGAPKTCTLLEKFPETTGCRRGQIKYSIMHPGTHVWPHTGPTNCRLRMHLGLVIPKEGCKIRCANETKTWEEGKVLIFDDSFEHEVWQDASSFRLIFIVDVWHPELTPQQRRSLPAI
For B1, the binding [1] was “binds” and the binding [2] was “binds”.

B2: ASPH overexpressed in HepG2 cells (HepG2-ASPH) (enzyme, UniProt Q12797 1-758)
chain: MAQRKNAKSSGNSSSSGSGSGSTSAGSSSPGARRETKHGGHKNGRKGGLSGTSFFTWFMVIALLGVWTSVAVVWFDLVDYEEVLGKLGIYDADGDGDFDVDDAKVLLGLKERSTSEPAVPPEEAEPHTEPEEQVPVEAEPQNIEDEAKEQIQSLLHEMVHAEHVEGEDLQQEDGPTGEPQQEDDEFLMATDVDDRFETLEPEVSHEETEHSYHVEETVSQDCNQDMEEMMSEQENPDSSEPVVEDERLHHDTDDVTYQVYEEQAVYEPLENEGIEITEVTAPPEDNPVEDSQVIVEEVSIFPVEEQQEVPPETNRKTDDPEQKAKVKKKKPKLLNKFDKTIKAELDAAEKLRKRGKIEEAVNAFKELVRKYPQSPRARYGKAQCEDDLAEKRRSNEVLRGAIETYQEVASLPDVPADLLKLSLKRRSDRQQFLGHMRGSLLTLQRLVQLFPNDTSLKNDLGVGYLLIGDNDNAKKVYEEVLSVTPNDGFAKVHYGFILKAQNKIAESIPYLKEGIESGDPGTDDGRFYFHLGDAMQRVGNKEAYKWYELGHKRGHFASVWQRSLYNVNGLKAQPWWTPKETGYTELVKSLERNWKLIRDEGLAVMDKAKGLFLPEDENLREKGDWSQFTLWQQGRRNENACKGAPKTCTLLEKFPETTGCRRGQIKYSIMHPGTHVWPHTGPTNCRLRMHLGLVIPKEGCKIRCANETKTWEEGKVLIFDDSFEHEVWQDASSFRLIFIVDVWHPELTPQQRRSLPAI
With B2 the binding [3] was “binds”.

B3: mitochondrial transcription factor A (mtTFA), endogenous in HepG2 cells (protein, UniProt Q00059 43-246)
chain: SSVLASCPKKPVSSYLRFSKEQLPIFKAQNPDAKTTELIRRIAQRWRELPDSKKKIYQDAYRAEWQVYKEEISRFKEQLTPSQIMSLEKEIMDKHLKRKAMTKKKELTLLGKPKRPRSAYNVYVAERFQEAKGDSPQEKLKTVKENWKNLSDSEKELYIQHAKEDETRYHNEMKSWEEQMIEVGRKDLLRRTIKKQRKYGAEEC
For B3, the binding [3] was “binds”.

Reference: PMC5541716
